Measurements reported in PubChem BioAssay AID1508597 (Cure First, 2020)
Purpose: 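Survival screen with siRNA in ovarian cancer cells derived from patients, with or without rucaparib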 (primary screen). Cells: human ovarian carcinoma lines grown from tumours: OCI-P5x (papillary serous) and OCI-C5x (clear cell). Reagents: siRNA pool against human genes, 1.25 pmol siRNA per well. Time to read-out: 72 h or 96 h, depending on the cell culture. Treatment: rucaparib 20 µM (about IC30) or vehicle, present until read-out. Rucaparib or vehicle: Vehicle. Cell line: OCI-P5x (serous). Read-out: 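Luminescent ATP-based viability assay read 72 or 96 h after transfection, depending on culture, given as normalised percent viability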. Reading the numbers: viability, normalised: higher = more viable cells remaining. Active means: 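a well counts as a hit if its normalised viability is under 80 percent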. Meaning of the calls: active = viability under 80%; inactive = viability 80% or more.
This is an unselected part of the about 2,100 reagents, in one setting of the screen. 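Calls flag viability under 80% in either arm, not effects specific to rucaparib; the reference for percent is not stated.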 Not stated in the record: the 100% reference.

PRKRA (GeneID 8575), technical replicate 1 gave viability, normalised (%) = 58.1; active.
PRKRA (GeneID 8575), technical replicate 2 gave viability, normalised (%) = 70.8; active.
For PRKRA (GeneID 8575), technical replicate 3 the deposit lists viability, normalised (%) = 93.7; inactive.
RPH3A (GeneID 22895), technical replicate 1 gave viability, normalised (%) = 49.3; active.
RPH3A (GeneID 22895), technical replicate 2 scored viability, normalised (%) = 56.5; active.
With RPH3A (GeneID 22895), technical replicate 3 the deposit lists viability, normalised (%) = 55.5; active.
For TANK (GeneID 10010), technical replicate 1, the values are viability, normalised (%) = 76.1; active.
TANK (GeneID 10010), technical replicate 2 gave viability, normalised (%) = 67.1; active.
For TANK (GeneID 10010), technical replicate 3, the values are viability, normalised (%) = 79.9; active.

Sorted by “viability, normalised (%)” (ascending): 2 of the entries above
RPH3A (GeneID 22895), technical replicate 3 — viability, normalised (%): 55.5; call: active
RPH3A (GeneID 22895), technical replicate 2 — viability, normalised (%): 56.5; call: active

The listing continues:
SMARCA5 (GeneID 8467), technical replicate 1 showed viability, normalised (%) = 58.3; active.
With SMARCA5 (GeneID 8467), technical replicate 2, the values are viability, normalised (%) = 41.7; active.
SMARCA5 (GeneID 8467), technical replicate 3 scored viability, normalised (%) = 62.9; active.
PARP8 (GeneID 79668), technical replicate 1 scored viability, normalised (%) = 48.1; active.
PARP8 (GeneID 79668), technical replicate 2 scored viability, normalised (%) = 38.3; active.
With PARP8 (GeneID 79668), technical replicate 3 the deposit lists viability, normalised (%) = 62.1; active.
For RPS6KA3 (GeneID 6197), technical replicate 1, the entry reads viability, normalised (%) = 89.6; inactive.
With RPS6KA3 (GeneID 6197), technical replicate 2, the values are viability, normalised (%) = 98.7; inactive.
RPS6KA3 (GeneID 6197), technical replicate 3 showed viability, normalised (%) = 112; inactive.
RABGGTA (GeneID 5875), technical replicate 1 showed viability, normalised (%) = 52.9; active.
RABGGTA (GeneID 5875), technical replicate 2 gave viability, normalised (%) = 59.1; active.
RABGGTA (GeneID 5875), technical replicate 3 gave viability, normalised (%) = 48.7; active.
